PubChem BioAssay AID1259405 | NCATS – 2018
Screen: 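Mouse-designed siRNAs used to find CHO productivity engineering targets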 (primary screen). Cell system: Chinese hamster CHO-K1 ovary cells with stable secreted eGFP expression. Reagents: single siRNA against mouse genes, 0.8 pmol siRNA per well (2 µl of 400 nM stock). Timing: 3 days. Detection: 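Percent of the per-plate non-targeting control median for intracellular GFP per well by laser scanning cytometry and for cell viability by ATP luminescence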. Scale: GFP, % of control: higher = more GFP per well, higher productivity; viability (ATP), % of control: higher = more viable cells (more ATP). Rule for the call: 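a knock-down is called active if GFP reaches 120% or more of non-targeting control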.
The whole screen tested about 50,000 reagents; shown is an unselected part. Over the whole deposit, about 4,000 (8%) were called active. 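Mouse siRNA library applied to hamster cells; one well for each siRNA.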 Reagents against one gene are numbered here.

target	siRNA no.	GFP, % of control	viability (ATP), % of control	outcome
Olig1 (oligodendrocyte transcription factor 1)	1	77.3	91.1	inactive
Olig1 (oligodendrocyte transcription factor 1)	2	53	69.1	inactive
Olig1 (oligodendrocyte transcription factor 1)	3	60	93.1	inactive
T2 (brachyury 2)	1	115	109	inactive
T2 (brachyury 2)	2	96.9	113	inactive
T2 (brachyury 2)	3	115	87.2	inactive
Zfpm2 (zinc finger protein, multitype 2)	1	73.2	95.7	inactive
Zfpm2 (zinc finger protein, multitype 2)	2	68.2	95.4	inactive
Slc9a8	1	119	68.2	inactive
Slc9a8	2	106	83.3	inactive
Slc9a8	3	95.8	91.2	inactive
Anapc13 (anaphase promoting complex subunit 13)	1	92.9	69.7	inactive
Anapc13 (anaphase promoting complex subunit 13)	2	58.6	47.2	inactive
Anapc13 (anaphase promoting complex subunit 13)	3	78.3	47.5	inactive
Usp7 (ubiquitin specific peptidase 7)	1	91.2	63.5	inactive
Usp7 (ubiquitin specific peptidase 7)	2	27.1	22.8	inactive
Usp7 (ubiquitin specific peptidase 7)	3	45	42.4	inactive
Tex264 (testis expressed gene 264 ER-phagy receptor)	1	65.1	61.7	inactive
Tex264 (testis expressed gene 264 ER-phagy receptor)	2	65.7	78.9	inactive
Tex264 (testis expressed gene 264 ER-phagy receptor)	3	138	143	active
Lypd6b (LY6/PLAUR domain containing 6B)	1	103	87	inactive
Lypd6b (LY6/PLAUR domain containing 6B)	2	67	75.8	inactive
Lypd6b (LY6/PLAUR domain containing 6B)	3	84.2	58.9	inactive
Ninj2 (ninjurin 2)	1	122	82.6	active
Ninj2 (ninjurin 2)	2	114	58.7	inactive
Mospd3 (motile sperm domain containing 3)	1	37.2	32.5	inactive
Mospd3 (motile sperm domain containing 3)	2	74.3	56.5	inactive
Mospd3 (motile sperm domain containing 3)	3	45.8	32.7	inactive
Idh3b (isocitrate dehydrogenase 3 (NAD+) beta)	1	120	74.8	inactive
Idh3b (isocitrate dehydrogenase 3 (NAD+) beta)	2	122	70.3	active
Idh3b (isocitrate dehydrogenase 3 (NAD+) beta)	3	127	92.4	active
Mrtfa (myocardin related transcription factor A)	1	78.2	86.2	inactive
Mrtfa (myocardin related transcription factor A)	2	70.4	73.9	inactive
Mrtfa (myocardin related transcription factor A)	3	55.6	82.1	inactive
Gpr156 (G protein-coupled receptor 156)	1	85.2	61.8	inactive
Gpr156 (G protein-coupled receptor 156)	2	86.8	74	inactive
Gpr156 (G protein-coupled receptor 156)	3	53.1	49.9	inactive
Smpd1 (sphingomyelin phosphodiesterase 1, acid lysosomal)	1	91	95.3	inactive
Smpd1 (sphingomyelin phosphodiesterase 1, acid lysosomal)	2	58.5	55.1	inactive
Smpd1 (sphingomyelin phosphodiesterase 1, acid lysosomal)	3	80.2	69	inactive
Tspan4 (tetraspanin 4)	1	109	85.7	inactive
Tspan4 (tetraspanin 4)	2	65.4	77.1	inactive
Tspan4 (tetraspanin 4)	3	106	67.4	inactive
Zfp595 (zinc finger protein 595)	1	77	80	inactive
Zfp595 (zinc finger protein 595)	2	76.8	79.2	inactive
Zfp595 (zinc finger protein 595)	3	93.8	117	inactive
Ankrd6 (ankyrin repeat domain 6)	1	104	66.7	inactive
Ankrd6 (ankyrin repeat domain 6)	2	107	97.7	inactive
Ankrd6 (ankyrin repeat domain 6)	3	79.3	85.6	inactive
Kdm4c (lysine (K)-specific demethylase 4C)	1	51.1	59.5	inactive
Kdm4c (lysine (K)-specific demethylase 4C)	2	77.3	87.6	inactive
Kdm4c (lysine (K)-specific demethylase 4C)	3	96.8	30.1	inactive
Agtrap (angiotensin II, type I receptor-associated protein)	1	73.5	56.1	inactive
Agtrap (angiotensin II, type I receptor-associated protein)	2	66.2	73	inactive
Agtrap (angiotensin II, type I receptor-associated protein)	3	75.8	86	inactive
Zfp592 (zinc finger protein 592)	1	63.1	54	inactive
Zfp592 (zinc finger protein 592)	2	86.6	74.4	inactive
Zfp592 (zinc finger protein 592)	3	98.9	96.3	inactive
Ufd1 (ubiquitin recognition factor in ER-associated degradation 1)	1	16.5	12.5	inactive
Ufd1 (ubiquitin recognition factor in ER-associated degradation 1)	2	115	87.6	inactive
Ufd1 (ubiquitin recognition factor in ER-associated degradation 1)	3	95.9	84.6	inactive
Selenow (selenoprotein W)	1	71.5	101	inactive
Selenow (selenoprotein W)	2	43.8	56.2	inactive
Selenow (selenoprotein W)	3	46.6	52.7	inactive
Slc36a3	1	58.9	105	inactive
Slc36a3	2	93.6	31.7	inactive
Slc36a3	3	88.6	82.8	inactive
Slc27a2	1	147	60.9	active
Slc27a2	2	76.8	80.4	inactive
Slc27a2	3	112	111	inactive
Zfp771 (zinc finger protein 771)	1	30.7	34.5	inactive
Zfp771 (zinc finger protein 771)	2	46.4	77.7	inactive
Zfp771 (zinc finger protein 771)	3	84	92.2	inactive
Ankrd54 (ankyrin repeat domain 54)	1	95.2	79.2	inactive
Ankrd54 (ankyrin repeat domain 54)	2	76.9	80.8	inactive
Ankrd54 (ankyrin repeat domain 54)	3	119	114	inactive
Trim38 (tripartite motif-containing 38)	1	91.8	90.4	inactive
Trim38 (tripartite motif-containing 38)	2	74.9	79.2	inactive
Trim38 (tripartite motif-containing 38)	3	90.1	121	inactive
Lmf2 (lipase maturation factor 2)	1	67.7	59.5	inactive
Lmf2 (lipase maturation factor 2)	2	92.6	85.7	inactive
Lmf2 (lipase maturation factor 2)	3	60.9	72.8	inactive
Slc51b	1	36.3	17.6	inactive
Slc51b	2	116	73	inactive
Slc51b	3	80	81.1	inactive
